# In patent CN113501879A:
# The chains behind the UniProt entries cited, without tags or fusion partners.
# UniProt Q9NZQ7: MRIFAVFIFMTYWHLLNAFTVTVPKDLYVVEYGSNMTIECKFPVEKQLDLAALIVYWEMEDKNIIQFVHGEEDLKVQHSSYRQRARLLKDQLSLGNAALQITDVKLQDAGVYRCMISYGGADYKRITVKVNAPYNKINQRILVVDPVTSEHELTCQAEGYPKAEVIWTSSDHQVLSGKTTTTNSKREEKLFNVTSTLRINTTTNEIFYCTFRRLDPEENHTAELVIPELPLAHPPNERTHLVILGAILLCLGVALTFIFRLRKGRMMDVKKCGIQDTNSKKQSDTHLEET
# These are yes or no findings as the source states them, for the method shown. Some entries that bind do so weakly or less than the wild type.
# Biological target: PD-L1-his(ACRO biosystem) (human) (UniProt Q9NZQ7)
# Assay: One of the 39 clones positive in the ELISA on coated PD-L1-his (OD450 > 0.4); blocking ELISA with PD-L1-his in solution
binder,measurement,value
"克隆2G3 (scFv, V domains shown) VH: QIQLQQSGAELMKPGASVKISCKASGYTFTDYNIHWVKQSHGKSLEWIGRINPYNGDTFYNQKFKGKATLTVDKSSSTAHMELLSLTSEDSAVYYCGRMGYDAWFAYWGQGTLVTVSA VL: DIQMTQSHKFMSTSVGDRVSITCKASQDVGTAVAWYQQKPGQSPKLLIYWASTRHTGVPDRFTGSGSGTDFTLTISNVQSEDLADYFCQQYSSYPLTFGGGTKLEIK",binding,binds
